# Assay results: the supplement of paper PMC8728848
# The other results are listed elsewhere or left out.
# Legend:
# Experiment in all cases: glycan array binding signal (z-score within array); higher = stronger binding
# Conditions in all cases: glycan notation: IUPAC condensed, linker removed
# [1] = biological target: Neu5Ac(a2-6)Gal(b1-4)GlcNAc(b1-2)Man(a1-3)[GlcNAc(b1-4)][Neu5Ac(a2-6)Gal(b1-4)GlcNAc(b1-2)Man(a1-6)]Man(b1-4)GlcNAc(b1-4)GlcNAc
# In short: (§1)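 The Consortium for Functional Glycomics database supplied 3228 glycan arrays, of which those lacking an available protein sequence were dropped. The binding signal, a within-array Z-score, was averaged across arrays of the same protein sequence and across linkers. Negative scores can be read as non-binding.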
# [2] = biological target: Neu5Ac(a2-6)Gal(b1-4)GlcNAc(b1-2)Man(a1-3)[Man(a1-6)]Man(b1-4)GlcNAc(b1-4)GlcNAc
# In short: as §1
# [3] = biological target: Neu5Ac(a2-6)Gal(b1-4)GlcNAc(b1-2)Man(a1-3)[Neu5Ac(a2-3)Gal(b1-4)GlcNAc(b1-2)Man(a1-6)]Man(b1-4)GlcNAc(b1-4)GlcNAc
# In short: as §1
# [4] = biological target: Neu5Ac(a2-6)Gal(b1-4)GlcNAc(b1-2)Man(a1-3)[Neu5Ac(a2-6)Gal(b1-4)GlcNAc(b1-2)Man(a1-6)]Man(b1-4)GlcNAc(b1-4)GlcNAc
# In short: as §1
# [5] = biological target: Neu5Ac(a2-6)Gal(b1-4)GlcNAc(b1-2)Man(a1-3)[Neu5Ac(a2-6)Gal(b1-4)GlcNAc(b1-2)Man(a1-6)]Man(b1-4)GlcNAc(b1-4)[Fuc(a1-6)]GlcNAc
# In short: as §1
# [6] = biological target: Neu5Ac(a2-6)Gal(b1-4)GlcNAc(b1-2)Man(a1-6)Man(b1-4)GlcNAc(b1-4)GlcNAc
# In short: as §1
# [7] = biological target: Neu5Ac(a2-6)Gal(b1-4)GlcNAc(b1-2)Man(a1-6)[Gal(b1-4)GlcNAc(b1-2)Man(a1-3)]Man(b1-4)GlcNAc(b1-4)GlcNAc
# In short: as §1
# [8] = biological target: Neu5Ac(a2-6)Gal(b1-4)GlcNAc(b1-2)Man(a1-6)[GlcNAc(b1-2)Man(a1-3)]Man(b1-4)GlcNAc(b1-4)GlcNAc
# In short: as §1
# [9] = biological target: Neu5Ac(a2-6)Gal(b1-4)GlcNAc(b1-2)Man(a1-6)[Man(a1-3)]Man(b1-4)GlcNAc(b1-4)GlcNAc
# In short: as §1
# [10] = biological target: Neu5Ac(a2-6)Gal(b1-4)GlcNAc(b1-2)[Neu5Ac(a2-6)Gal(b1-4)GlcNAc(b1-4)]Man(a1-3)[GlcNAc(b1-4)][Neu5Ac(a2-6)Gal(b1-4)GlcNAc(b1-2)[Neu5Ac(a2-6)Gal(b1-4)GlcNAc(b1-6)]Man(a1-6)]Man(b1-4)GlcNAc(b1-4)GlcNAc
# In short: as §1
# [11] = biological target: Neu5Ac(a2-6)Gal(b1-4)GlcNAc(b1-2)[Neu5Ac(a2-6)Gal(b1-4)GlcNAc(b1-4)]Man(a1-3)[GlcNAc(b1-4)][Neu5Ac(a2-6)Gal(b1-4)GlcNAc(b1-4)Man(a1-6)]Man(b1-4)GlcNAc(b1-4)GlcNAc
# In short: as §1
# [12] = biological target: Neu5Ac(a2-6)Gal(b1-4)GlcNAc(b1-2)[Neu5Ac(a2-6)Gal(b1-4)GlcNAc(b1-6)]Man(a1-6)[Neu5Ac(a2-6)Gal(b1-4)GlcNAc(b1-2)Man(a1-3)][GlcNAc(b1-4)]Man(b1-4)GlcNAc(b1-4)GlcNAc
# In short: as §1
# [13] = biological target: Neu5Ac(a2-6)Gal(b1-4)GlcNAc(b1-3)Gal(b1-3)GlcNAc
# In short: as §1
# [14] = biological target: Neu5Ac(a2-6)Gal(b1-4)GlcNAc(b1-3)Gal(b1-4)GlcNAc
# In short: as §1
# [15] = biological target: Neu5Ac(a2-6)Gal(b1-4)GlcNAc(b1-3)Gal(b1-4)GlcNAc(b1-2)Man(a1-3)[Neu5Ac(a2-6)Gal(b1-4)GlcNAc(b1-3)Gal(b1-4)GlcNAc(b1-2)Man(a1-6)]GalNAc
# In short: as §1
# [16] = biological target: Neu5Ac(a2-6)Gal(b1-4)GlcNAc(b1-3)Gal(b1-4)GlcNAc(b1-3)Gal(b1-4)GlcNAc
# In short: as §1
# [17] = biological target: Neu5Ac(a2-6)Gal(b1-4)GlcNAc(b1-3)Gal(b1-4)GlcNAc(b1-3)Gal(b1-4)GlcNAc(b1-2)Man(a1-3)[Neu5Ac(a2-6)Gal(b1-4)GlcNAc(b1-3)Gal(b1-4)GlcNAc(b1-3)Gal(b1-4)GlcNAc(b1-2)Man(a1-6)]GalNAc
# In short: as §1
# [18] = biological target: Neu5Ac(a2-6)Gal(b1-4)GlcNAc(b1-3)Gal(b1-4)GlcNAc(b1-3)GalNAc
# In short: as §1
# [19] = biological target: Neu5Ac(a2-6)Gal(b1-4)GlcNAc(b1-3)Gal(b1-4)GlcNAc(b1-3)[Neu5Ac(a2-6)Gal(b1-4)GlcNAc(b1-3)Gal(b1-4)GlcNAc(b1-6)]GalNAc
# In short: as §1
# [20] = biological target: Neu5Ac(a2-6)Gal(b1-4)GlcNAc(b1-3)Gal(b1-4)GlcNAc(b1-6)[Gal(b1-3)]GalNAc
# In short: as §1
# [21] = biological target: Neu5Ac(a2-6)Gal(b1-4)GlcNAc(b1-3)Gal(b1-4)[Fuc(a1-3)]GlcNAc(b1-3)Gal(b1-4)[Fuc(a1-3)]GlcNAc
# In short: as §1
# [22] = biological target: Neu5Ac(a2-6)Gal(b1-4)GlcNAc(b1-3)GalNAc
# In short: as §1
# [23] = biological target: Neu5Ac(a2-6)Gal(b1-4)GlcNAc(b1-3)[Neu5Ac(a2-6)Gal(b1-4)GlcNAc(b1-6)]GalNAc
# In short: as §1
# [24] = biological target: Neu5Ac(a2-6)Gal(b1-4)GlcNAc(b1-6)GalNAc
# In short: as §1
# [25] = biological target: Neu5Ac(a2-6)Gal(b1-4)GlcNAc(b1-6)[Gal(b1-3)GlcNAc(b1-3)]Gal(b1-4)Glc
# In short: as §1
# [26] = biological target: Neu5Ac(a2-6)Gal(b1-4)GlcNAc(b1-6)[Gal(b1-3)]GalNAc
# In short: as §1
# [27] = biological target: Neu5Ac(a2-6)Gal(b1-4)GlcNAc6S
# In short: as §1
# Neu5Ac(a2-6)GalNAc = biological target: Neu5Ac(a2-6)GalNAc
# In short: as §1
# [28] = biological target: Neu5Ac(a2-6)GalNAc(b1-4)GlcNAc
# In short: as §1
# [29] = biological target: Neu5Ac(a2-6)GalNAc(b1-4)GlcNAc6S
# In short: as §1
binder,measurement,setting,value
"R2-fiber (Pseudomonas aeruginosa), Q9S576 (protein) HHHHHHKVAKDLVVSLAYQVRTEDGVLVDESPVSAPLDYLHGHGSLISGLETALEGHEVGDKFDVAVGANDAYGQYDENLVQRVPKDVFMGVDELQVGMRFLAETDQGPVPVEITAVEDDHVVVDGNHMLAGQNLKFNVEVVAIREATEEELAHGHVHGAHDHHHDHDHDGCCGGHGHDHGHEHGGEGCCGGKGNGGCGCHENLYFQGVTAGMALAATDIPGLDASKLVSGVLAEQRLPVFARGLATAVSNSSDPNTATVPLMLTNHANGPVAGRYFYIQSMFYPDQNGNASQIATSYNATSEMYVRVSYAANPSIREWLPWQRCDIGGSFTKEADGELPGGVNLDSMVTSGWWSQSFTAQAASGANYPIVRAGLLHVYAASSNFIYQTYQAYDGESFYFRCRHSNTWFPWRRMWHGGDFNPSDYLLKSGFYWNALPGKPATFPPSAHNHDVGQLTSGILPLARGGVGSNTAAGARSTIGAGVPATASLGASGWWRDNDTGLIRQWGQVTCPADADASITFPIPFPTLCLGGYANQTSAFHPGTDASTGFRGATTTTAVIRNGYFAQAVLSWEAFGR",glycan array binding signal (z-score),[1],-0.507
same,glycan array binding signal (z-score),[2],-0.154
same,glycan array binding signal (z-score),[3],-0.866
same,glycan array binding signal (z-score),[4],-0.371
same,glycan array binding signal (z-score),[5],-0.676
same,glycan array binding signal (z-score),[6],-0.664
same,glycan array binding signal (z-score),[7],-0.838
same,glycan array binding signal (z-score),[8],0.361
same,glycan array binding signal (z-score),[9],-0.125
same,glycan array binding signal (z-score),[10],-0.74
same,glycan array binding signal (z-score),[11],0.438
same,glycan array binding signal (z-score),[12],-0.557
same,glycan array binding signal (z-score),[13],-1.21
same,glycan array binding signal (z-score),[14],-0.035
same,glycan array binding signal (z-score),[15],-0.854
same,glycan array binding signal (z-score),[16],-0.036
same,glycan array binding signal (z-score),[17],-0.064
same,glycan array binding signal (z-score),[18],1.44
same,glycan array binding signal (z-score),[19],-0.443
same,glycan array binding signal (z-score),[20],-0.196
same,glycan array binding signal (z-score),[21],-0.169
same,glycan array binding signal (z-score),[22],-0.084
same,glycan array binding signal (z-score),[23],-0.127
same,glycan array binding signal (z-score),[24],-0.606
same,glycan array binding signal (z-score),[25],0.031
same,glycan array binding signal (z-score),[26],0.265
same,glycan array binding signal (z-score),[27],-0.196
same,glycan array binding signal (z-score),Neu5Ac(a2-6)GalNAc,-0.423
same,glycan array binding signal (z-score),[28],0.449
same,glycan array binding signal (z-score),[29],-0.47
